# Source: the supplement of paper PMC3334620
# The full ranking holds about 33,000 sequences; the median of “E-score (-0.5 to 0.5)” is about -0.0034, and the highest 2% start at about 0.25. The list shows a part of the results.
# Target: T1, Yap3 (UniProt P38749)
# T1 sequence: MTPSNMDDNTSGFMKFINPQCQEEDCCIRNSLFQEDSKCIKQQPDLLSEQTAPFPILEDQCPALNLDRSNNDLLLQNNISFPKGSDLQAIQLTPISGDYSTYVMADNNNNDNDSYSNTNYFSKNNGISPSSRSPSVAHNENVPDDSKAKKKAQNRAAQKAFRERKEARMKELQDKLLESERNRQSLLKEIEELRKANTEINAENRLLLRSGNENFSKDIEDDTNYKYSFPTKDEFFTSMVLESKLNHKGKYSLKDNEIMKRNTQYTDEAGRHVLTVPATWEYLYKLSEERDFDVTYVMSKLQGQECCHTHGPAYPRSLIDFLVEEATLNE
# Assay: PBM E-score (8-mer binding enrichment) (E-score (-0.5 to 0.5)); higher = stronger / more preferred TF binding
# Conditions: protein concentration: 100 nM; construct: GST-full length
# Method: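 Universal 'all 10-mer' protein binding microarrays (Agilent AMADID 015681) probed with GST-tagged S. cerevisiae TFs (full-length or DBD) made by in vitro transcription/translation (PURExpress), about 100-200 nM. Bound TF was detected with fluorescent anti-GST. Each ungapped 8-mer (which stands for itself and its reverse complement) is scored by the PBM enrichment score (E-score), a modified Wilcoxon-Mann-Whitney statistic from -0.5 to +0.5, computed with the Universal PBM Analysis Suite. Scale: above 0.35 generally sequence-specific binding.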
row,Sequence,PBM E-score
1,ACATGGCC,0.0939
2,ACAACCTA,0.0482
3,TTGACCAA,0.0369
4,ACAACCGT,-0.187
5,GAGAGACC,-0.195
6,TACATCTA,0.081
7,ACTCGAAA,-0.0406
8,ACGTCCGC,0.0414
9,ACTACGGC,-0.0822
10,CGACGTTA,0.138
11,CTCTTTAC,0.0471
12,ACTTGACA,-0.108
13,GACGCGGC,-0.0163
14,CAAGCGGC,0.00049
15,GCTATTAA,0.103
16,GGAATACC,0.0209
17,AGAAAACC,-0.0178
18,CCCGGTCA,-0.114
19,GCACATGA,-0.103
20,GTTGTCAA,0.0335
21,ACCATTAG,-0.0299
22,GTAATACA,0.273
23,ATATTGAC,0.069
24,AAGCCCCT,-0.282
25,TCACTTAA,0.252

row,Sequence,PBM E-score
1,ATCCGGTG,0.139
2,CATGGCCC,-0.186
3,CCGTATAC,-0.0052
4,CCGAGACA,-0.131
5,AAGCGCTT,0.321
6,CTATAGCC,-0.267
7,CGGTGCAC,-0.127
8,ACTATTCA,0.191
9,CTTATGTC,0.0347
10,CGGTTCCC,-0.175
11,GGGACAAA,-0.0131
12,CTCCAGAC,-0.195
13,CAACCGCC,-0.103
14,TAGGTTAA,0.0719
15,TCCGTTAA,0.115
16,AAATGATA,0.275
17,ATGTAAAT,0.192
18,CTGTCCGC,-0.0179
19,TGATAGCA,0.176
20,ATACACGG,0.105
21,AGCGGATG,-0.121
22,GACTTTCA,0.0935
23,GACAACCC,-0.11
24,CACGATCC,-0.0939
25,AGAGCTAC,-0.0188

# Part of the list above in another layout:
row	Sequence	PBM E-score
7	CGGTGCAC	-0.127
8	ACTATTCA	0.191
9	CTTATGTC	0.0347

# (continued)

row,Sequence,PBM E-score
1,ATTCAGAA,0.0683
2,CGGCACTC,-0.217
3,CCGAAGGA,-0.177
4,CTAATTAG,0.347
5,GCACAAGC,-0.0462
6,AGGGGCCC,-0.157
7,ACAAAAGT,0.0482
8,TAAAGGCA,0.126
9,AAGGGACG,-0.0997
10,GGGAATCA,-0.0365
11,CAAAGCCG,-0.00668
12,ACTTGATG,-0.0189
13,ACAAAATC,0.181
14,CGAGTAGA,-0.0433
15,CGCTAGGA,-0.0382
16,ACCTGCGT,-0.153
17,ATCAGTCC,-0.328
18,GGGTTGAA,-0.022
19,CGCATACG,-0.0601
20,CCTTAAGG,0.0219
21,GGCCTTTA,-0.0858
22,GTGGCCAA,0.0887
23,AACCACAT,0.175
24,GAAGTAGC,-0.0115
25,GATGGGGA,-0.0817

# Pulled one by one from the entries so far:
row,Sequence,PBM E-score
19,CGCATACG,-0.0601
24,GAAGTAGC,-0.0115
23,AACCACAT,0.175
2,CGGCACTC,-0.217
7,ACAAAAGT,0.0482
12,ACTTGATG,-0.0189

# Further results

row,Sequence,PBM E-score
1,AGATCAAG,0.0648
2,AAGGTTCG,-0.129
3,GTTGGCAA,-0.0255
4,TAGAGTAA,0.119
5,CAAAGTCC,-0.0777
6,TATGTGAA,0.0273
7,GCCTAACC,-0.151
8,CCAGGTAC,-0.176
9,AACCTGCC,-0.101
10,CGGAGAAA,0.0609
11,CAGCAGAC,-0.0288
12,CAGCGCCG,-0.151
13,CCCCTTCG,-0.378
14,GCACATAA,0.131
15,CCAGGTAA,-0.0346
16,AACTAATA,0.342
17,CCGTGTCC,-0.0326
18,ACGTATCA,0.137
19,CCAACAGA,0.0551
20,GCTAGGAA,-0.0771
21,AGTGCTCG,-0.11
22,CCTACGCG,0.016
23,ACACCGCT,-0.145
24,CGGGTTTA,0.169
25,AGCGGGGA,-0.102

row,Sequence,PBM E-score
1,ATCTCGAG,0.0454
2,GGGCTAAA,-0.0125
3,CATTCTAG,-0.0724
4,CAGAAAAA,0.0388
5,CACCTACC,-0.119
6,AGAGGCGA,-0.00469
7,CAACGGTC,-0.137
8,ACACGTAC,0.0592
9,GAGCAATC,-0.0416
10,GGAGGCCA,-0.309
11,ACCTTCTA,0.116
12,GCCCCATA,-0.0177
13,AGAGGCAA,0.0405
14,GCTTGGAA,0.0266
15,AGGTAATG,0.0748
16,AATTTAAA,0.171
17,ACGACCAA,-0.0655
18,CTCGTGAC,-0.0978
19,CCTATGCA,0.116
20,AAATTTCT,-0.00302
21,CCTGGCCG,-0.168
22,GGACCTAC,-0.124
23,CACAGAGG,-0.168
24,ACACTTCG,0.159
25,CGGGGTAA,0.0457

row,Sequence,PBM E-score
1,CCATCCAA,-0.106
2,CATTCGGA,0.143
3,ACAATTTC,0.177
4,ATCTGCCG,0.101
5,TCTCGCCA,0.0242
6,CCACACGC,0.0282
7,GACCACGC,-0.0763
8,CTGGTAGA,0.0643
9,CGTGCTAC,-0.185
10,ACCTGGTC,-0.115
11,CAAGTAAA,0.162
12,CGTTGTTC,0.0743
13,ACAGAGGT,-0.0174
14,CTTAGAGC,-0.0124
15,AGCTTCCA,-0.0552
16,ACAGGCCT,-0.0323
17,CGTAACAC,0.135
18,AGCGATAA,0.0176
19,CGTTGAAC,-0.07
20,GGGTGGTA,-0.0891
21,ATATGGTG,0.105
22,GCTTCCGA,0.0118
23,CTCTGTAA,-0.0654
24,ACCCCCAG,-0.359
25,GTGAATTA,0.233

row,Sequence,PBM E-score
1,GACCAGTA,-0.157
2,CCAACTTC,-0.106
3,ACACTCTA,0.0899
4,CATCCTAG,-0.0476
5,AGGAAGAG,-0.185
6,AGGTCTCA,-0.0409
7,ATCGTACA,0.121
8,CGGAATAC,0.115
9,GAGAGTGA,0.0641
10,AAATGTCA,0.00064
11,ACCCGTCT,-0.254
12,TCCTCACA,-0.106
13,TACTAAAA,0.255
14,ACGGAGAG,-0.0434
15,ACTCCAGA,-0.173
16,GCCCGGGC,-0.175
17,GCGTGTCA,0.126
18,CTTGAAAC,0.177
19,GACACCTC,-0.0165
20,CACTCTTA,0.0336
21,ATGCGCAC,0.0993
22,AGAACGAT,0.061
